Measured values reported in US12226450B2, “Peptides and methods for treating disease” (OP-T LLC, priority 2019, dated 2025).
Part of at least one peptide drawing is inferred or uncertain, most often the ends. Where no end group is shown, it is not given here.

Tests used:
[1] = tested on: NOD mice; assay: Development of diabetes in NOD mice treated with CD154 peptide fragments; format: in vivo, mouse; conditions: 25 ug (1 mg/kg) tail vein weekly from 6 weeks of age; diabetes = blood glucose greater than 250 mg/dL for three consecutive days
Procedure: Peptides were designed based on the amino acid sequence of mouse CD154 protein (SEQ ID NO:1) in the SwissPro database. […] Weekly after the initial injection, another 25 ug of peptide (or 100 ul of PBS in the case of the Control mice) was injected into the tail vein. At 10 weeks of age, mice were monitored for diabetes, as indicated by a blood glucose level greater than 250 mg/dL for three consecutive days. During this time, blood was also taken from the tail vein, or by sub-mandibular venal puncture, and the level of CD4+ and CD8+ cells determined by flow cytometry using antibodies for CD4 protein and CD8 protein.

[2] = tested on: NOD mice; assay: Hyperglycemia in newly diabetic NOD mice; format: in vivo, mouse
[3] = tested on: B cells; assay: Binding of FITC-labeled 15-mer peptide to B cells by flow cytometry; parameters: species or system mouse; conditions: NOD spleen MHC-II+ CD19+ CD21+ cells; 90% of B cells were CD40 positive
[4] = tested on: NOD mice; assay: Reversal of hyperglycemia and insulin granulation of the pancreas in NOD mice treated at onset of diabetes; format: in vivo, mouse
[5] = tested on: NOD mice; assay: Hyperglycemia in diabetic NOD mice treated with KGYY-15; format: in vivo, mouse; conditions: blood glucose between 250-400 mg/dl
Procedure: In this study, NOD mice, blood glucose between 250-400 mg/dl were treated with KGYY-15. Control mice were treated with MR1 an anti-CD154 antibody or scrambled 15-mer peptide (SEQ ID NO: 17). KGYY-15 (SEQ ID NO: 11) reduced blood glucose in 57% of mice treated, the controls MR1 and scrambled 15-mer peptide had no effect.

[6] = tested on: human or mouse CD4+CD40+ cells; assay: Binding stability of peptide on live cells in culture over time; format: cell-based; conditions: culture for 10 days; dropping off at 7 days and again at 10 days; cell death leading cause of binding loss
[7] = tested on: human T cells, isolated from peripheral blood of T1D subjects; assay: Intracellular IFNγ and IL-4 in stimulated human T cells by flow cytometry; format: cell-based; conditions: autologous antigen presenting cells loaded with human islets
[8] = tested on: diabetic dogs; assay: Blood and urine glucose in diabetic dogs treated by IV infusion; format: in vivo, dog
[9] = tested on: Th40 cells; assay: Th40 cell percentages in peripheral blood of treated diabetic dogs by flow cytometry; format: in vivo, dog
[10] = tested on: diabetic dogs; assay: Glycosylated fructosamine serum values in treated diabetic dogs; format: in vivo, dog; conditions: after 8 weeks of treatment versus pre-treatment
[11] = tested on: diabetic dogs; assay: Plasma c-peptide ELISA in treated diabetic dogs; format: in vivo; conditions: plasma pre- and post-treatment, dog subjects 1-5
[12] = tested on: diabetic dogs; assay: Urine ketones in treated diabetic dogs; format: in vivo, dog
[13] = prior to treatment none below 350

**Q.** How did the development of diabetes [1] turn out when `CSCC[C@H](NC(=O)[C@@H](NC(=O)[C@H](Cc1ccc(O)cc1)NC(=O)[C@H](Cc1ccc(O)cc1)NC(=O)CNC(=O)[C@H](CCCCN)NC(=O)[C@H](CCCCN)NC(=O)[C@H](C)NC(=O)[C@H](Cc1c[nH]c2ccccc12)NC(=O)[C@H](CCC(N)=O)NC(=O)[C@H](CC(C)C)NC(=O)[C@@H](N)C(C)C)[C@@H](C)O)C(=O)N[C@@H](CCCCN)C(=O)N[C@@H](CO)C(=O)N[C@@H](CC(N)=O)C(=O)O` [15-mer peptide, VLQWAKKGYYTMKSN] was run?
**A.** prevented the onset of diabetes

**Q.** What about the “return of hyperglycemia after cessation of the treatment” value ([2]; after ten weeks of weekly 15-mer peptide) of the same compound?
**A.** ≤ 7 weeks

**Q.** And the reversal of hyperglycemia ([2]; already diabetic NOD mice, 100 ug intravenously, then weekly for ten weeks)?
**A.** can reverse hyperglycemia

**Q.** And the “B cells that bound the peptide” value [3]?
**A.** 8%

**Q.** And the “reversal of hyperglycemia, share of recipients” value ([4]; six NOD mice at the onset of diabetes, 100 ug/ml)?
**A.** 80%

**Q.** And the “insulin granulation of the pancreas” value ([4]; six weeks after reversal of hyperglycemia, aldehyde/fuschsin stain, versus irrelevant peptide)?
**A.** preserved insulin granules in the majority of the mice

**Q.** What about the “mice treated in which blood glucose was reduced” value [5] of the same compound?
**A.** 57%

**Q.** What about the “binding stability on cells in culture” value [6] of the same compound?
**A.** highly stable through 5 days

**Q.** And the “intracellular IL-4” value [7]?
**A.** without impacting production

**Q.** What about the “intracellular IFNγ” value ([7]; P<0.001) of the same compound?
**A.** regulates the inflammatory cytokine IFNγ

**Q.** For “VLRWAPKGYYTISSN [SEQ ID NO: 13, VLRWAPKGYYTISSN]”, which “time-in-range (percentage of a 24-hour period that blood glucose ranged between 80 and 160)” value ([8]; dog diagnosed for 3.5 years, improved from 10%, 5 consecutive days in the 5th week and last 3 test weeks) is on record?
**A.** 80%

**Q.** And the “blood glucose after typical response” value ([8]; example: from 400, stable for 2 days, then return to elevated levels)?
**A.** 120

**Q.** What about the “blood and urine glucose while on treatment” value ([8]; five diabetic dogs, IV infusion 2 mg/kg Days 0, 4, 8 then weekly) of the same compound?
**A.** reduction of blood and urine glucose

**Q.** And the “blood glucose pre-treatment versus post-treatment” value ([8]; four of the five dogs, multi column t-test, each dog p=0.0042, overall p=0.0040)?
**A.** reduced blood glucose significantly

**Q.** And the “dogs in which urine glucose was eliminated” value ([8]; of five diabetic dogs, IV infusion 2 mg/kg)?
**A.** 2

**Q.** And the “blood glucose during treatment, in many cases” value [8, 13]?
**A.** ≤ 150 mg/dL

**Q.** What about the “blood glucose during treatment, the majority of the time” value [8, 13] of the same compound?
**A.** ≤ 200 mg/dL

**Q.** And the “time post treatment at which improvements in blood glucose occurred” value ([8]; typical response in all five dogs)?
**A.** 3 to 5 days

**Q.** What about the “Th40 cell percentages by day 16” value ([9]; 5th treatment, normal <25%) of the same compound?
**A.** in the normal range

**Q.** What about the “Th40 cell levels by day 6” value ([9]; following the third treatment, pre-treatment 50% or higher) of the same compound?
**A.** reduction in Th40 cell levels

**Q.** What about the “Th40 cell levels on day 35” value ([9]; one week after the last treatment) of the same compound?
**A.** remained at or within a normal range

**Q.** And the “Th40 cell levels two months later” value ([9]; three of the five dog subjects re-examined)?
**A.** remained reduced, but were beginning to return to higher numbers

**Q.** What about the fructosamine levels [10] of the same compound?
**A.** reduced in each dog

**Q.** And the c-peptide levels [11]?
**A.** increased after treatment

**Q.** What about the “keytone measurement in urine by the end of the study” value ([12]; all dog subjects, measured approximately every 2 weeks) of the same compound?
**A.** 0

**Q.** And the ketonuria ([12]; while on treatment, five dogs)?
**A.** elimination of ketonuria in all dogs
